## Library screen at single concentrations

The values are deposited in ChEMBL (CHEMBL3988442, “University of Dundee, Small-Polar-MMV Screening Library” (2021)).

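Whole-parasite assay of Trypanosoma brucei over 72 hours; the read-out is not stated. Concentration: 30 µM. Higher reads as stronger inhibition (inferred: compounds with an IC50 in retests scored well above the rest). Values scatter widely below zero; nearly all retest evidence comes from the higher of the two concentrations used. About 64,000 compounds were tested under these conditions; 1.5% (about 940) showed 50% or more at least once.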

Each number is a percent effect as filed. How 0% and 100% were set is not recorded. Most values in the screen are low, and negative values occur. Compounds were drawn at random from those tested, without regard to their results.

Compound	effect
Cl.Nc1nc(C(=O)NCC2CCC3(CCNCC3)CO2)cs1 (centres undefined)	-64.57
COc1ccc(-c2n[nH]cc2C2SCC(=O)Nc3[nH]ncc32)cc1 (centres undefined)	39.53
Cc1ccc(CN2CCCn3nnc(COCCN(C)C)c3C2)s1.O=C(O)C(F)(F)F.O=C(O)C(F)(F)F	-28.91
COCCSCC(=O)NCc1ccc(N(C)C)nc1	-21.8
O=C(NCC1(CO)CC1)NC(c1nccs1)C1CC1 (centres undefined)	-5.932
CC(C)(C)NC(=O)CN1CCNCC1.Cl.Cl	-49.47
CCOc1cc(CN(C)CCCC#N)ccc1OC(F)F	-9.298
[H][C@@]12COC[C@]1(COCC(=O)N(C)C)CN(Cc1cc(C)on1)C2	-34.19
CC(=O)N1CCCC1c1nccc(C)n1 (centres undefined)	20.5
Cn1c(=O)c2sccc2n(Cc2ccccc2)c1=O	-12.34
O=C(O)C(F)(F)F.O=S(=O)(C1CC1)N1CCC2(CCCN(c3ncccn3)C2)C1 (centres undefined)	-17.49
CN1CCC(n2nc(Cc3cccc(Cl)c3)nc2Cn2ccnc2)CC1	-10.78
CN(CC1CCCO1)c1nc(-c2cccnc2)nc2c1CCNCC2 (centres undefined)	0.7603
CN(C)c1ncc(C2Nc3cc(Cl)ccc3C3=NCCCN32)cn1.Cl (centres undefined)	62.93
COCCNc1ccccc1CNC(=O)NCc1ccc(C)s1	-3.066
CN(C)CC1(O)CCN(C(=O)c2cnc(-c3ccccn3)nc2)C1 (centres undefined)	-1.153
Cc1cc(C(=O)NS(=O)(=O)Cc2ccon2)c(C)n1C(C)C	-58.66
Cc1nc(CN2CCN(C(C)C(=O)NC3CCCC3)CC2)cs1 (centres undefined)	-40.16
CC(C)Cc1ncc2c(n1)CN(C(=O)Cn1c(=O)oc3ccccc31)C2	-44.79
COC(=O)c1sccc1S(=O)(=O)NCCC(O)c1ccco1 (centres undefined)	14.22
Cc1cc(-c2ccc(=O)n(CCNC(=O)C3CC3)n2)c(C)o1	4.118
COc1ccc2nnc(CCCC(=O)NCCc3ccccn3)n2n1	1.659
Cn1cnc2c1CCN(CC(O)c1ccc(S(C)(=O)=O)cc1)C2 (centres undefined)	-1.852
CCN(C)C[C@@H]1CN(C(=O)NC2CCCCC2)C[C@@H]1CO	-23.3
CC(Cc1cccc(F)c1)C(=O)NS(=O)(=O)c1cnn(C)c1 (centres undefined)	-23.1
Cc1cc(C(=O)N2CCc3[nH]cnc3C2C(=O)O)c(-c2ccccc2)o1 (centres undefined)	7.979
CCC(CNC(=O)c1c(C)nn(C)c1OC)Oc1ccccc1 (centres undefined)	-9.727
N#Cc1c(N2CCN(CC3CCOC3)CC2)nc2ccccn12 (centres undefined)	-16.51
CCc1nnc(Nc2cccc(C3CCN(CCO)CC3)n2)s1	2.156
[H][C@]12CC[C@@]3(N=C(CC)N(CC4CC4)C3=O)[C@@]1([H])CN(C(=O)NCC(C)C)C2	-1.548
O=C(CNC(=O)C1CC1)Nc1c(F)cccc1Oc1ccccc1	-17.52
CC(C)Oc1ncc(C(=O)N2CCc3ccc(O)cc3C2)cc1Cl	1.728
O=c1c(NCc2ccco2)c(NCC(O)CN2CCOCC2)c1=O (centres undefined)	-36.79
O=C(N1CCOCC1)N1CCc2ncnc(NC3CCC3)c2CC1.O=C(O)C(F)(F)F	-46.89
Cc1ccc(NC2CCN(C(=O)c3cccc4[nH]ncc34)CC2)nn1	10.49
CN(C(=O)c1cnc(N2CCOCC2)nc1)C1Cc2ccccc2C1	-12.93
[H][C@]12CCN(C(=O)C3CCCO3)[C@@]1([H])CCC(=O)N2Cc1ccncc1 (some centres undefined)	-7.707
Cc1cnn(C(C)C2CC2)c1NC(=O)c1ncccc1O (centres undefined)	2.7
N#CCSCC(=O)NCC1CCCCC1	-49.62
CC(=O)N1CCN(c2ccnc3c(F)cc(Br)cc23)CC1	6.289
CC(NC(=O)CCCC(=O)c1cccs1)c1nnc2n1CCC2 (centres undefined)	-1.39
CCCN(Cc1ccccc1C)C(CC)CO (centres undefined)	-3.263
CSc1ccc(CN(CCO)C(=O)CCc2cccc(F)c2)cc1	-13.99
CCc1nccn1-c1cccc(C2CCCN(C3CCCCC3)C2)n1 (centres undefined)	-5.534
CC(=O)c1cc(CC(=O)NCc2cccc(F)c2F)cs1	-20.75
Cc1nc(C)n(CC2CCCCN2CCS(C)(=O)=O)n1 (centres undefined)	-14.32
COc1ccnc(NC(=O)CSCc2cccnc2)c1	5.987
COc1ccc(NC(=O)c2cccc(OC)c2OC)cc1	10.51
COc1ccc(CN(Cc2ccccn2)Cc2cncn2C)cc1.O=C(O)CC(O)(CC(=O)O)C(=O)O	2.175
O=C(O)C(F)(F)F.[H][C@@]12CCN(c3ncccn3)[C@@]1([H])CCN2C(=O)NC(C)C	-10.98
CN1CCOC(C(=O)N2CCOC3(CCCC3)C2)C1 (centres undefined)	13.95
Cc1cccc(CN2Cc3[nH]nc(COc4cccnc4)c3C2)n1.O=C(O)C(F)(F)F.O=C(O)C(F)(F)F.O=C(O)C(F)(F)F	-54.28
Cc1ccn(-c2ccnc(N3CCC(N4CCCCC4)CC3)n2)n1	-34.33
N#CCCSc1sc2c(O)cc(O)nc2c1C#N	-20.38
COCCN1CCC(C)(c2cc(O)[nH]n2)CC1	-18.13
Cc1cc(-c2cnc(N3CCCC(C)C3)nc2-c2cccnc2C)on1.Cl (centres undefined)	58.57
O=C(NCc1nc(-c2ncccn2)no1)c1ccc(C2CCCO2)s1 (centres undefined)	-13.31
Cc1nc(CNC(=O)NCC(O)c2ccccc2)cs1 (centres undefined)	-5.639
Cn1ccnc1CN1CC[C@H](O)[C@@H](n2ccc(=O)[nH]c2=O)CC1	1.65
Cc1cc(N2CCCC(O)(CN(C)C)CC2)nc(-c2ccccc2)n1 (centres undefined)	-9.326
Cc1ccc2nc(C(=O)N3C[C@@H](C(=O)O)[C@H](c4ccccc4)C3)cn2c1	-49.12
O=C(c1cc(=O)c(OCc2ccccc2F)co1)N1CCCC1	-25.82
O=C(Cc1ccc2c(c1)CCO2)N1CCCC1Cn1cccn1 (centres undefined)	-40.4
NC(=O)c1cnn2c1NCC(CNCCOc1ccccc1)C2 (centres undefined)	5.042
O=C(Nc1cccc(OCC(F)F)n1)c1ccncc1	10.36
O=C1COc2cc(C(=O)NS(=O)(=O)c3ccc(F)cc3)ccc2N1	16.11
c1cncc(-c2ccc3c(c2)CCC32CCNCC2)c1	-29.83
O=C(c1cnccn1)N1CCC2(CCN(Cc3ccsc3)C2)CC1	-5.612
COc1ccccc1-c1ncc(CN2CCCC[C@H](N(C)C)C2)s1	40.64
Cc1cccc(-c2[nH]ncc2CNCC2CCN(CC(C)O)CC2)c1 (centres undefined)	13.45
COc1ccc(C(C(=O)O)N2CCN(C3CCCC3)CC2)cc1OC (centres undefined)	-29.27
COCCC(=O)N1CC2(CCN(Cc3ccncc3)CC2)C1	-24.97
CCOc1ccccc1CN(CC)Cc1ccc(S(=O)(=O)NC)cc1	6.604

Some entries from above, unchanged:

| Compound | effect |
|---|---|
| `CCN(C)C[C@@H]1CN(C(=O)NC2CCCCC2)C[C@@H]1CO` | -23.3 |
| `COC(=O)c1sccc1S(=O)(=O)NCCC(O)c1ccco1` (centres undefined) | 14.22 |
| `Cc1cc(C(=O)NS(=O)(=O)Cc2ccon2)c(C)n1C(C)C` | -58.66 |
| `CC(NC(=O)CCCC(=O)c1cccs1)c1nnc2n1CCC2` (centres undefined) | -1.39 |
| `COc1ccnc(NC(=O)CSCc2cccnc2)c1` | 5.987 |
| `COCCNc1ccccc1CNC(=O)NCc1ccc(C)s1` | -3.066 |
| `Cc1cccc(CN2Cc3[nH]nc(COc4cccnc4)c3C2)n1.O=C(O)C(F)(F)F.O=C(O)C(F)(F)F.O=C(O)C(F)(F)F` | -54.28 |